Measured values as given in patent US9227944B2, “Dopamine D3 receptor ligands and preparation and medical uses of the same” (INSTITUTE OF PHARMACOLOGY AND TOXICOLOGY ACADEMY OF …, priority 2008, dated 2016).
Values joined by “and” are separate entries in the source; they are usually repeats but may differ in a detail not shown here. Identical values can stand only once. “Also recorded” adds a separate entry of the source. At least one compound was matched to its structure with a doubt left.

Sequences of proteins named here, by UniProt entry; tags and fusion partners are left off. A change or cut given only in a name is not applied to a line headed by its entry.
UniProt P35462, whole entry, species assumed: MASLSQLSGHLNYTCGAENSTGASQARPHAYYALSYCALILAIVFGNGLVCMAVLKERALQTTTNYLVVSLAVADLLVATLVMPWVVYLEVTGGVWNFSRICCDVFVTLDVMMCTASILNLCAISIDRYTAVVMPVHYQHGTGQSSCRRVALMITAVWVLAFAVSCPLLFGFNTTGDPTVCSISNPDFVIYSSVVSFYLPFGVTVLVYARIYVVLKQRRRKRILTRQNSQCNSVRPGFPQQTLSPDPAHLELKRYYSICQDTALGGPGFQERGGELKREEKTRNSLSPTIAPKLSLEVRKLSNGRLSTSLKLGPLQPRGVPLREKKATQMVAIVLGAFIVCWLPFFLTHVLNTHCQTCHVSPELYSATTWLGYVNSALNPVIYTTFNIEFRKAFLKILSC

Experiments:
[1] = system: Long-Evans rats; test: Cocaine-enhanced brain stimulated reward (BSR); assay type: in vivo, rat
[2] = system: SD rats; test: Methamphetamine-triggered reinstatement of drug-seeking behavior; assay type: in vivo, rat; conditions: METH reinstatement test
Experimental: Male SD rats weighing 250-300 g were used. METH was dissolved in physiological saline. YQA14 was synthesized by the inventors and dissolved in vehicle, i.e., 25% 2-hydroxypropyl-β-cyclodextrin.
Intravenous cocaine self-administration experiments were conducted in operant response test chambers (32×25×33 cm^3) (Med Associates, Saint Albans, Vt., USA).
The protocol is the same as the cocaine-triggered reinstatement of drug-seeking behavior in rats. […] (See the details in the part 4: Effects of YQA14 on cocaine-triggered reinstatement in rats.)

[3] = system: SD rats; test: Heroin self-administration under FR2 reinforcement; assay type: in vivo, rat
[4] = system: Kun-Ming mice; test: Methamphetamine-induced behavioral sensitization in mice; assay type: in vivo, mouse
[5] = system: SD rats; test: METH self-administration under FR2 reinforcement; assay type: in vivo, rat
[6] = system: SD rats; test: Cue-triggered reinstatement of methamphetamine-seeking behavior; assay type: in vivo, rat
[7] = system: wild-type (WT) mice; test: Cocaine-induced conditioned place preference in WT mice; assay type: in vivo, mouse
[8] = system: SD rats; test: METH self-administration under PR reinforcement; assay type: in vivo, rat
[9] = system: Kun-Ming mice; test: Methamphetamine-induced conditioned place preference in mice; assay type: in vivo, mouse
[10] = system: D3R knockout (D3^−/−) mice; test: Cocaine-induced conditioned place preference in D3R knockout mice; assay type: in vivo, mouse
[11] = system: Long-Evans rats; test: Cocaine-triggered reinstatement of drug-seeking behavior; assay type: in vivo, rat; conditions: 12.5, 25 mg/kg, reinstatement test
[12] = system: Sprague-Dawley rats; test: Morphine-induced conditioned place preference in rats (Experiment 17); assay type: in vivo, rat
[13] = target: T1, D3R (Homo sapiens, UniProt P35462); test: 35S-GTPγS binding, intrinsic activity at D3R; assay type: biochemical
T1 construct: expressed in transfected cells; host or cells: CHO (stably transfected CHO-D3R), membrane preparation

[14] = system: Long-Evans rats; test: Cocaine-induced locomotor (behavior) sensitization; assay type: in vivo, rat
Experimental: Male Long-Evans rats weighing 250-300 g were used. Cocaine HCl was dissolved in physiological saline. […] The locomotor detection chamber (Accuscan, Columbus, Ohio, USA) Before receiving cocaine or YQA14, rats were placed in a locomotor detection chamber (Accuscan, Columbus, Ohio, USA) for habituation for 1 h per day for 3 days. Rats were then divided into three groups. […] On the test day, rats were placed into the locomotion detection chambers to measure locomotion immediately after received 10 mg/kg cocaine or YQA14. Total distance counts were used to evaluate the effect of YQA14 on basal and cocaine-induced behavioral sensitization.

[15] = system: Kunming mice; test: Apomorphine mice climbing test; assay type: in vivo, mouse; conditions: 30 min before apomorphine 2 mg/kg sc, listed as Y-QA14
Experimental: The climbing rates of positive animals measured after 15 min and 30 min of apomorphine administration in each group were recorded and compared, the higher one was used in calculation (see: Moore N A et al. J Clin Psychiatry 1997, 58 (Suppl 10): 37-44).

[16] = system: wistar rats; test: Conditioned place preference caused by morphine in rats (Experiment 4); assay type: in vivo, rat; conditions: 5 mg/kg and 10 mg/kg, abdominal administration 20 min before morphine 10 mg/kg sc in training
[17] = system: Long-Evans rats; test: Cocaine self-administration under FR2 reinforcement; assay type: in vivo, rat
[18] = system: Long-Evans rats; test: Contextual cue-induced cocaine-seeking behavior; assay type: in vivo, rat
[19] = 25 or 50 mg/kg i.p. for 10 days, cocaine 20 mg/kg, listed as YQA14

## Cc1ccc(Cl)cc1N1CCN(CCCCNC(=O)c2ccc3oc(=O)[nH]c3c2)CC1 [Compound 1, N-{4-[4-(5-chloro-2-methylphenyl)piperazinyl]butyl}-benzoxazolin-2-one-5-carboxamide]
[1]; 25 mg/kg
  cocaine enhanced BSR, individual group comparison vs vehicle: statistically significant reduction
[1]; 12.5, 25 mg/kg i.p. 30 min prior to cocaine 2 mg/kg i.p., listed as YQA14
  effect on cocaine-enhanced BSR (θ0): decreased; also recorded: significantly inhibited
[2]
  inactive lever response: did not alter
[3]; 25 mg/kg
  Heroin self-administration (FR2), individual comparison vs vehicle: statistically significant reduction
[3]; 12.5, 25 mg/kg i.p., Heroin 0.05 mg/kg, listed as YQA14
  Heroin self-administration (FR2): inhibited; also recorded: significantly reduced
[4]; […] or 25 mg/kg
  expression of METH-induced locomotor sensitization, individual group comparisons: statistically significant reduction
[4]; chronic 6.25, 12.5, 25 mg/kg/day for 10 days, 20 min prior to METH 1 mg/kg, listed as YQA14
  acquisition of METH-induced behavioral sensitization: inhibits; also recorded: significantly attenuated
[4]; post-hoc vs METH group, each dose
  locomotion on challenge day (METH 0.5 mg/kg s.c.) after chronic treatment: significant difference between YQA14 and METH treatment group at each dose
[4]; single administration, 7 days after last METH, METH 0.5 mg/kg, listed as YQA14
  expression of METH-induced locomotor sensitization: inhibits; also recorded: significantly attenuated
[5]; 6.25, 12.5, 25 mg/kg i.p., METH 0.05 mg/kg
  METH self-administration (FR2): had no significant difference
[5]; 6.25, 12.5 or 25 mg/kg, METH 0.006, 0.0125, 0.025 mg/kg/injection, listed as YQA14
  METH self-administration maintained by lower METH doses (FR2): inhibited; also recorded: significantly and dose-dependently attenuated
[5]; after 6.25, 12.5 or 25 mg/kg, Student-Newman-Keuls
  METH self-administration at lower METH doses, individual group comparisons vs vehicle: statistically significant reduction
[6]; 6.25, 12.5, 25 mg/kg on test day, listed as YQA14
  cue-induced METH-seeking behavior: inhibited; also recorded: significantly and dose-dependently attenuated
[6]; 6.25, 12.5 and 25 mg/kg
  active lever pressing vs vehicle, individual group comparisons: significant reduction
[6]; cue-induced reinstatement test
  inactive lever responses: did not alter
[7]; 25 mg/kg
  acquisition of cocaine-induced CPP, post-hoc vs vehicle: but not 25 mg/kg
[7]; 50 mg/kg
  acquisition of cocaine-induced CPP, post-hoc vs vehicle: statistically significant reduction
[7]; [19]
  acquisition of cocaine-induced CPP: inhibits; also recorded: significantly inhibited
[7]; single 25, 50 mg/kg, 20 min before test, listed as YQA14
  expression of cocaine-induced CPP: inhibits; also recorded: significantly inhibited
[8]; […] and 25 mg/kg
  PR break-point vs vehicle, individual group comparisons: statistically significant reduction
[8]; dose-related, one-way ANOVA, listed as YQA14
  PR break-point for METH (% change): inhibited; also recorded: significantly decreases
[9]; 6.25, 12.5, and 25 mg/kg i.p. during extinction, METH 0.5 mg/kg s.c. priming
  METH-induced reinstatement of METH-induced CPP: significantly attenuated
[9]; 6.25, 12.5 and 25 mg/kg
  METH-induced reinstatement of CPP, individual group comparisons: statistically significant reduction
[9]; […] or 25 mg/kg
  expression of METH-induced CPP, post-hoc: statistically significant reduction
[9]; chronic, 6.25, 12.5 and 25 mg/kg i.p. 20 min prior to each METH or saline injection, listed as YQA14
  acquisition of METH-induced CPP: did not alter; also recorded: had no significant effect
[9]; repeated daily treatment during extinction, listed as YQA14
  extinction of METH-induced CPP (time in METH-paired compartment, first extinction test day): facilitates extinction; also recorded: dose-dependently decreased reward-seeking
[9]; single 6.25, 12.5, and 25 mg/kg i.p., 20 min prior to test, listed as YQA14
  expression of METH-induced CPP: inhibits; also recorded: significantly attenuated
[10]; [19]
  acquisition of cocaine-induced CPP: but not in D3^−/− mice
[10]; single 25, 50 mg/kg, 20 min before test
  expression of cocaine-induced CPP: but not in D3^−/− mice
[11]
  inactive lever response: did not alter
[12]; 25 mg/kg
  expression of morphine-induced CPP, post-hoc: statistically significant reduction
  morphine-induced reactivation of CPP: the reduction was statistically significance
[12]; 6.25, 12.5 and 25 mg/kg i.p. on extinction training days, morphine 5 mg/kg s.c. prime, listed as YQA14
  morphine-induced reactivation of CPP: inhibited; also recorded: dose-related manner decreased
[12]; 12.5, 25 and 50 mg/kg i.p. for 4 days on conditioning days, morphine 10 mg/kg s.c., listed as YQA14
  acquisition of morphine-induced CPP: had no effect; also recorded: did not significantly influence
[12]; single 6.25, 12.5 and 25 mg/kg i.p. on test day, listed as YQA14
  expression of morphine-induced CPP (CPP scores): attenuated; also recorded: decreased the CPP scores in a dose-related manner
[13]; compound alone
  activation of D3R coupling G protein (35S-GTPγS binding): cannot activate D3R coupling G protein
[13]; in presence of D3R agonist
  effect on agonist (quinpirole) activated 35S-GTPγS binding at D3R: inhibit the agitation activity of D3R agonist in a concentration dependent way
[14]; 12.5, 25 mg/kg, 20 min prior to each cocaine injection for 7 days, listed as YQA14
  acquisition of repeated cocaine-induced locomotor sensitization: inhibited; also recorded: did not produce a statistically significant inhibitory effect
[14]; single injection, 7 days after last cocaine injection
  expression of cocaine-induced locomotor sensitization: significantly inhibited
[15]; 20 mg/kg ip
  Climbing rate: did not show significant inhibition effect
[15]; 30 mg/kg ip
  Climbing rate: partial inhibition
[15]; 40 mg/kg ip
  Climbing rate: significant inhibition and 0/8**
[16]
  occurrence of conditioned place preference caused by morphine: significantly inhibit
[17]; 12.5 or 25 mg/kg i.p., 20 min prior to session, listed as YQA14
  effect on cocaine self-administration (FR2): attenuated; also recorded: significantly and dose-dependently inhibited
[17]; cocaine 0.03-0.25 mg/kg per infusion, after 6.25, 12.5 or 25 mg/kg
  cocaine self-administration maintained by lower cocaine doses, vs vehicle: statistically significant reduction
[18]; 25 mg/kg
  active lever pressing vs vehicle: significant reduction
[18]; 12.5, 25 mg/kg
  inactive lever responses: did not alter
[18]; 12.5, 25 mg/kg on test day, 14 days withdrawal, listed as YQA14
  contextual cue-induced cocaine-seeking behavior: inhibited; also recorded: significantly and dose-dependently attenuated
